The list shows only some results of the screen, not a fair sample: it gathers tests that were run many times, whatever their T/C, doses with no T/C, and many T/C values between a quarter and a half above the control. Other doses and runs of a compound stand elsewhere. T/C is the treated group as % of the vehicle group. Some entries give survivors of the animals treated and no T/C: the source holds a T/C of zero for them, seemingly a mark for toxic or unscored doses. Some survivor counts are full or nearly so, which does not show that the dose was tolerated: the source hardly ever lists a survival T/C far under the control, and the zero likely stands for such cases as well. Counts of survivors are from the toxicity check (mostly the fifth day) where no day follows; animals may have died later. Schedules are NCI's codes, taken here to give the interval after Q, in days (D) or hours (H), and the number of doses after X. For survival time, the PubChem record calls one and a half times the control and up active, and a quarter to a half above the control has no call in these data; cut-offs in other NCI protocols can differ.
Tested on: CD2F1 mice, ip Colon 26 adenocarcinoma, median survival T/C
Experiment: NCI In Vivo Anticancer Drug Screen. Data for tumor model Colon 26 Adenocarcinoma (intraperitoneal) in CD2F1 (CDF1) mice
Settings: T/C endpoint: median survival time, higher T/C = longer survival
Experimental: The antitumor activity of compounds was measured in mice bearing transplantable tumors. Survival or tumor size were measured and the results are expressed as the measurement made in the treated group (T) divided by the measurement made in the vehicle treated control group (C). The tumor model used in this assay is Colon 26 Adenocarcinoma (intraperitoneal) in CD2F1 (CDF1) mice

CN(C)CCNc1cccc2c1C(=O)c1cccc(NCCN(C)C)c1C2=O
T/C (dose: 2.0 mg/kg/injection, schedule: Q01DX009 (ip), vehicle: saline): 125 % of control
T/C (dose: 4.0 mg/kg/injection, schedule: Q01DX009 (ip), vehicle: saline): 129 % of control
T/C (dose: 8.0 mg/kg/injection, schedule: Q01DX009 (ip), vehicle: saline): 129 % of control
T/C (dose: 16.0 mg/kg/injection, schedule: Q01DX009 (ip), vehicle: saline): 141 % of control
survivor count (dose: 30.0 mg/kg/injection, schedule: Q01DX009 (ip), vehicle: saline): 10 of 10
survivor count (dose: 32.0 mg/kg/injection, schedule: Q01DX009 (ip), vehicle: saline): 10 of 10

Cc1c2oc3c(C)c(N)cc(C(=O)NC4C(=O)NC(C(C)C)C(=O)N5CCCC5C(=O)N(C)CC(=O)N(C)C(C(C)C)C(=O)OC4C)c3nc-2c(C(=O)NC2C(=O)NC(C(C)C)C(=O)N3CCCC3C(=O)N(C)CC(=O)N(C)C(C(C)C)C(=O)OC2C)c(N)c1=O (centres undefined)
survivor count (dose: 2000.0 micrograms/kg/injection, schedule: Q01DX001 (ip), vehicle: saline + alcohol): 3 of 8
survivor count (dose: 4000.0 micrograms/kg/injection, schedule: Q01DX001 (ip), vehicle: saline + alcohol): 0 of 8

COc1cccc2c1C(=O)c1c(O)c3c(c(O)c1C2=O)C[C@@](O)(C(=O)CO)C[C@@H]3OC1CC(OC(C)=O)C(OC(C)=O)C(C)O1 (some centres undefined)
T/C (dose: 174.0 mg/kg/injection, schedule: Q07DX002 (sc), vehicle: distilled water + Tween-80): 142 % of control

Source: PubChem BioAssay AID210 (DTP/NCI, 2004)
